One molecule from ChEMBL document CHEMBL3997852, “Discovery of Fluorine-Containing Benzoxazinyl-oxazolidinones for the Treatment of Multidrug Resistant Tuberculosis” (ACS Med Chem Lett, 2017) can be followed below.

Chains of the proteins cited; added tags and fusions are not shown. Lines headed by an entry give the natural chain unless they say otherwise; changes in a name come on top.
UniProt Q12809: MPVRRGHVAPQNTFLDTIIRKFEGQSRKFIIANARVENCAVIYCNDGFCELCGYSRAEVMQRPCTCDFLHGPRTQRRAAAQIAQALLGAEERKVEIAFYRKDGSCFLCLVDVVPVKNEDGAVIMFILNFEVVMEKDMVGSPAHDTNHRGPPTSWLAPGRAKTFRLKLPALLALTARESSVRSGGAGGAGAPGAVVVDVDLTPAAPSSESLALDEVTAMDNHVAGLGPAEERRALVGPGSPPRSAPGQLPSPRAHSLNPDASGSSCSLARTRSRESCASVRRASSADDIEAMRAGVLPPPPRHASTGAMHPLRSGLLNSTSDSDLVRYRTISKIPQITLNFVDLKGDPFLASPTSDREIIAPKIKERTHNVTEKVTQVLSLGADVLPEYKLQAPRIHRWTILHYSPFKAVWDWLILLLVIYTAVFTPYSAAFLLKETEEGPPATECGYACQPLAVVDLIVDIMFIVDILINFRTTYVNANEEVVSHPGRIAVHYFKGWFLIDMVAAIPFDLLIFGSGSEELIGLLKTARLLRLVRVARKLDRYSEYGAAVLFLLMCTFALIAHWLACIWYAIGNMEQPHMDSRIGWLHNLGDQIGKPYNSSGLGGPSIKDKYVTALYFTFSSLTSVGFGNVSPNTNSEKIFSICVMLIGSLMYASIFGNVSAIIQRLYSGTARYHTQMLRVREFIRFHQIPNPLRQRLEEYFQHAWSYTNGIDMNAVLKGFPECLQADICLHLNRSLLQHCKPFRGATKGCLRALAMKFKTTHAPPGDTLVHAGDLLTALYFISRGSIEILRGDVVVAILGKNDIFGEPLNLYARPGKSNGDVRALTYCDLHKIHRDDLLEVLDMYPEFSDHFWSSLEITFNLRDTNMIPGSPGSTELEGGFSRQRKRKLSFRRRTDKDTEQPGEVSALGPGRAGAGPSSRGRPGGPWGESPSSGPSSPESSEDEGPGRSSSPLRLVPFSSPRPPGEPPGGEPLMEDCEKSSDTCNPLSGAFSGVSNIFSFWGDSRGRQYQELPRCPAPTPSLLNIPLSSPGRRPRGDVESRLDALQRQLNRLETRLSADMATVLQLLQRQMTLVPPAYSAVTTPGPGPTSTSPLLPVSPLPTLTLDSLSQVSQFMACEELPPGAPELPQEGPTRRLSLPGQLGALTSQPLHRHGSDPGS

This assay concerns the target Voltage-gated inwardly rectifying potassium channel KCNH2 (Homo sapiens, UniProt Q12809).

pIC50: −log10 of the molar value.

Take `CC(=O)NC[C@@H]1OC(=O)N2c3cc(F)c(C4=CCN(C(=O)CO)CC4)cc3OC[C@@H]12`: the negative logarithm of the IC50 (pIC50) was below 4.52.

A word on the pIC50: it is −log10 of the IC50, conventionally taken in molar units. High values mean a low IC50, low ones a high IC50.
